Only a part is listed here, and it is no random draw. At the low end of the ranking, values are background and their order means little.

The chains behind the UniProt entries cited, without tags or fusion partners. Where a name states a change or a piece, a line headed by the entry shows the natural chain unless it says otherwise.
UniProt Q9Y603: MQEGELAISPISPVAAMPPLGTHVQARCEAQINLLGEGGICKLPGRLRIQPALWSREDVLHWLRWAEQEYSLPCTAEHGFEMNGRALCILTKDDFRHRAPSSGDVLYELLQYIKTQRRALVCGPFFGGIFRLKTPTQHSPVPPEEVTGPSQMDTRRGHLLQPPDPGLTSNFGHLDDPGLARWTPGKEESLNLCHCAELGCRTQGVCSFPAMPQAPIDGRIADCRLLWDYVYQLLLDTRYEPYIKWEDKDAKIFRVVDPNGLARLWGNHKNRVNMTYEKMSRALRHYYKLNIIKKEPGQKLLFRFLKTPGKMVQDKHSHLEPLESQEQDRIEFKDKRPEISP
UniProt P41212: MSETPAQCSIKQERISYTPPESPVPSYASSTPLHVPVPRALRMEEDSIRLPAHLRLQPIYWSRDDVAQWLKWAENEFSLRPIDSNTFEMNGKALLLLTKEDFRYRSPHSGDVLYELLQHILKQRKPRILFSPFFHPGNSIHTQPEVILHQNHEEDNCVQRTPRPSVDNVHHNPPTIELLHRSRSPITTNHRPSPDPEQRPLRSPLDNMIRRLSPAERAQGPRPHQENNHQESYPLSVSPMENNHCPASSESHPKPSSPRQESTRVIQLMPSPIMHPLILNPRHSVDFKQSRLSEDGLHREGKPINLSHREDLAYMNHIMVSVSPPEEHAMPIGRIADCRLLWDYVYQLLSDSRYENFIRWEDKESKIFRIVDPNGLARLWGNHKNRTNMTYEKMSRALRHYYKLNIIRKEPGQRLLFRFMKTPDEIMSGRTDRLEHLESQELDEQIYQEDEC

The target in one test is T1, ELF3 (UniProt P78545).
T1 sequence: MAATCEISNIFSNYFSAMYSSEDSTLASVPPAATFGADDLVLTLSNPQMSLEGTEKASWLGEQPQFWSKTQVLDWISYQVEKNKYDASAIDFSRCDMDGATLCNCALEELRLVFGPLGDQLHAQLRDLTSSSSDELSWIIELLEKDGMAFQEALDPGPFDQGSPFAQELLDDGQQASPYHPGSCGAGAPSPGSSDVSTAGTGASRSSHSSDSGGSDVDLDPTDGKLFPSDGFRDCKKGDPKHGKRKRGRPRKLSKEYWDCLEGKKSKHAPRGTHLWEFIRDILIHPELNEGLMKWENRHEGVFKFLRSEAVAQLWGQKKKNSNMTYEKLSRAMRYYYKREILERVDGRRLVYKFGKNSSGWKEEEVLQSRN
Description: DAPPL (digital affinity profiling via proximity ligation, sequencing). Conditions: 10 mM Tris-HCl pH 7.5, 50 mM NaCl, 1 mM DTT, 4% glycerol, room temperature, 30 min; GST-TFs on glutathione beads, 16-mer random dsDNA library, 0.1% …; high values mean tight binding; double strand, one strand shown; scale: fold enrichment (6-mer frequency, TF over GST control).
As to GGCCAT, the binding signal is 0.766.

On to CCGAGT, for which the binding signal came out at 0.958.

Take CCGTGA: the binding signal turned out to be 0.175.

For ACCAGC, the binding signal worked out at 0.782.

CCGTGG gave a binding signal of 0.462.

Sequence GTGAGC returned a binding signal of 0.448.

GGGGTG had a binding signal of 0.591.

GTCCAG gave a binding signal of 0.562.

TTAGAC: the binding signal stood at 0.736.

In turn, GGTACC yielded a binding signal of 0.894.

GCGGAC registered a binding signal of 0.847.

As for GTGTAG, the binding signal is 0.572.

For GGAGGT, the binding signal turned out to be 0.3.

Sequence GGGTCG displayed a binding signal of 0.556.

With AGGGCG, the binding signal was 0.567.

GGCCGG came in with a binding signal of 0.673.

TAGGGG displayed a binding signal of 0.903.

Turning to GAGATG, the binding signal turned out to be 0.706.

On to GGGACA, for which the binding signal came out at 0.593.

AGACCA registered a binding signal of 0.606.

As to CAGAGG, the binding signal turned out to be 0.646.

CAAGAC returned a binding signal of 0.911.

GGGTGT came in with a binding signal of 0.863.

The sequence CGAGTC returned a binding signal of 0.461.

Sequence GGTTGC gave a binding signal of 0.792.

Take ACCGGG: the binding signal was 0.458.

For AGCCAG, the binding signal amounted to 0.508.

Sequence AGCCGC came in with a binding signal of 0.925.

In turn, AAGAGC had a binding signal of 0.904.

On to GTGAAG, for which the binding signal is 0.535.

Take CGGCGT: the binding signal is 0.868.

GGTCGG gave a binding signal of 0.228.

As for GCGAGT, the binding signal came out at 0.505.

Consider GAATCG, for which the binding signal is 0.614.

As to GCGGAG, the binding signal worked out at 0.318.

For TCGGGT, the binding signal stood at 0.548.

Consider AAGGCG, for which the binding signal amounted to 0.681.

In turn, CCATGA gave a binding signal of 0.877.

For GTCGGG, the binding signal came out at 0.25.

Another test deals with ETV7 (UniProt Q9Y603). The test is described as above. The settings on record: 10 mM Tris-HCl pH 7.5, 50 mM NaCl, 1 mM DTT, 4% glycerol, room temperature, 30 min; GST-TFs on glutathione beads, 16-mer random dsDNA library, 0.1% …; high values mean tight binding; double strand, one strand shown; scale: fold enrichment (6-mer frequency, TF over GST control).
On to GGCCAT, for which the binding signal worked out at 0.89.

Consider CCGAGT, for which the binding signal was 0.888.

The sequence CCGTGA registered a binding signal of 0.205.

Take ACCAGC: the binding signal worked out at 0.878.

CCGTGG showed a binding signal of 0.431.

The sequence GTGAGC returned a binding signal of 0.415.

Consider GGGGTG, for which the binding signal was 0.682.

Turning to GTCCAG, the binding signal amounted to 0.611.

The sequence TTAGAC yielded a binding signal of 0.82.

Sequence GGTACC showed a binding signal of 0.768.

GCGGAC showed a binding signal of 0.735.

As to GTGTAG, the binding signal is 0.814.

As to GGAGGT, the binding signal stood at 0.417.

GGGTCG yielded a binding signal of 0.611.

Sequence AGGGCG had a binding signal of 0.626.

In turn, GGCCGG registered a binding signal of 0.601.

TAGGGG: the binding signal was 0.991.

In the case of GAGATG, the binding signal is 0.749.

Sequence GGGACA gave a binding signal of 0.649.

Sequence AGACCA showed a binding signal of 0.599.

Sequence CAGAGG returned a binding signal of 0.693.

Sequence CAAGAC registered a binding signal of 0.909.

The sequence GGGTGT showed a binding signal of 0.811.

For CGAGTC, the binding signal was 0.543.

With GGTTGC, the binding signal turned out to be 0.997.

ACCGGG had a binding signal of 0.545.

For AGCCAG, the binding signal worked out at 0.533.

On to AGCCGC, for which the binding signal came to 0.982.

As for AAGAGC, the binding signal came to 0.848.

The sequence GTGAAG yielded a binding signal of 0.589.

In turn, CGGCGT had a binding signal of 0.841.

As to GGTCGG, the binding signal is 0.334.

As for GCGAGT, the binding signal turned out to be 0.714.

In the case of GAATCG, the binding signal amounted to 0.666.

GCGGAG: the binding signal stood at 0.353.

Regarding TCGGGT, the binding signal was 0.641.

On to AAGGCG, for which the binding signal was determined as 0.67.

Sequence CCATGA yielded a binding signal of 0.753.

On to GTCGGG, for which the binding signal was determined as 0.273.

Another test addresses ETV6 (UniProt P41212). The test is described as above. The settings on record: 10 mM Tris-HCl pH 7.5, 50 mM NaCl, 1 mM DTT, 4% glycerol, room temperature, 30 min; GST-TFs on glutathione beads, 16-mer random dsDNA library, 0.1% …; high values mean tight binding; double strand, one strand shown; scale: fold enrichment (6-mer frequency, TF over GST control).
As for GGCCAT, the binding signal turned out to be 0.86.

CCGAGT returned a binding signal of 0.933.

For the sequence CCGTGA, the binding signal amounted to 0.175.

Take ACCAGC: the binding signal came to 0.808.

CCGTGG came in with a binding signal of 0.387.

GTGAGC had a binding signal of 0.378.

Take GGGGTG: the binding signal is 0.71.

For GTCCAG, the binding signal is 0.698.

With TTAGAC, the binding signal was 0.845.

Regarding GGTACC, the binding signal was 0.716.

In the case of GCGGAC, the binding signal was determined as 0.731.

With GTGTAG, the binding signal was found to be 0.679.

Sequence GGAGGT displayed a binding signal of 0.324.

GGGTCG registered a binding signal of 0.61.

AGGGCG registered a binding signal of 0.589.

For GGCCGG, the binding signal was 0.587.

On to TAGGGG, for which the binding signal was 0.875.

GAGATG: the binding signal worked out at 0.698.

Sequence GGGACA yielded a binding signal of 0.617.

Regarding AGACCA, the binding signal stood at 0.561.

The sequence CAGAGG gave a binding signal of 0.598.

In the case of CAAGAC, the binding signal stood at 0.775.

As for GGGTGT, the binding signal was 0.772.

In turn, CGAGTC had a binding signal of 0.488.

The sequence GGTTGC displayed a binding signal of 0.791.

On to ACCGGG, for which the binding signal came out at 0.524.

Regarding AGCCAG, the binding signal is 0.416.

Sequence AGCCGC displayed a binding signal of 0.826.

AAGAGC came in with a binding signal of 0.86.

Sequence GTGAAG returned a binding signal of 0.559.

Take CGGCGT: the binding signal is 0.936.

Regarding GGTCGG, the binding signal was determined as 0.297.

GCGAGT yielded a binding signal of 0.57.

As to GAATCG, the binding signal worked out at 0.651.

With GCGGAG, the binding signal stood at 0.262.

The sequence TCGGGT yielded a binding signal of 0.597.

For the sequence AAGGCG, the binding signal was 0.638.

The sequence CCATGA had a binding signal of 0.834.

GTCGGG yielded a binding signal of 0.214.

The values are drawn from article PMC7862700.
